Data published in the M2OR odorant receptor database.
The list shows a part of the results, in another mix than the full data. The calls were merged from several studies; some rest on single wells. The list shows a part of the results.

By UniProt entry, the sequences of proteins in these tests, tags left out. Chains listed by the source or under a name are the forms on record and can include a tag or linker.
UniProt Q8VG26, as listed by the source: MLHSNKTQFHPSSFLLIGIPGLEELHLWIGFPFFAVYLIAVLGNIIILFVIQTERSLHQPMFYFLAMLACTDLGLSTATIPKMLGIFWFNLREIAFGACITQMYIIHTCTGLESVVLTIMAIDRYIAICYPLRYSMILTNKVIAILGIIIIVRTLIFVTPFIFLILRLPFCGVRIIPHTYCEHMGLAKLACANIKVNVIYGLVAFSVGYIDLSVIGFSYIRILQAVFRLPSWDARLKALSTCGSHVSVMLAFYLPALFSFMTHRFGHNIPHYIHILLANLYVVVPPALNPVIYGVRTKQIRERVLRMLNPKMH
UniProt Q8VG28, as listed by the source: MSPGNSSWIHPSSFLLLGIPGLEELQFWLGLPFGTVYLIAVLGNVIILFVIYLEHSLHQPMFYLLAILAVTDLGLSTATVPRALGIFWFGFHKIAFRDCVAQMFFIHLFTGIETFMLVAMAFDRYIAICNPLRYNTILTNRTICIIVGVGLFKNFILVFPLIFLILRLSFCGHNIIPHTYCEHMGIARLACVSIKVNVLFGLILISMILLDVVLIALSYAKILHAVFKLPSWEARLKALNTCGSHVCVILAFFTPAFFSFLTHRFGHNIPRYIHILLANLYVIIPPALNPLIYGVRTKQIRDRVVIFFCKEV

How the values were obtained:
Settings in all cases: stereoisomer not certain
[1] = target: T1, UniProt Q8VFM8
T1 sequence (whole entry): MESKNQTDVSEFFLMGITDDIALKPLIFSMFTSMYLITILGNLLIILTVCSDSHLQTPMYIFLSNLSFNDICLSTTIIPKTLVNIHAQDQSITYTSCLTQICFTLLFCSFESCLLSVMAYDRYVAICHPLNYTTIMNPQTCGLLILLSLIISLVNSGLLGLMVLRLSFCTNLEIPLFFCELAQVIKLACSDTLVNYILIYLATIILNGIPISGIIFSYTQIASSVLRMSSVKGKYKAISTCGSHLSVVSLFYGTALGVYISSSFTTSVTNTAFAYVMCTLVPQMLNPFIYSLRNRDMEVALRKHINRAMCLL
How it was run: (§1)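 Values were gathered from published papers (main text and supplementary material), with extra details requested from the original authors when needed, and checked for typos and inconsistencies. Each receptor–molecule pair is called responsive (active) if the original authors judged the measured signal statistically different from baseline, and non-responsive (inactive) otherwise. Assay methods varied by source, often transient mammalian cell-line luciferase assays. Recorded details include cell line, G-protein, co-transfected protein and tags.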

[2] = target: T2, UniProt Q8VFP5
T2 sequence (whole entry): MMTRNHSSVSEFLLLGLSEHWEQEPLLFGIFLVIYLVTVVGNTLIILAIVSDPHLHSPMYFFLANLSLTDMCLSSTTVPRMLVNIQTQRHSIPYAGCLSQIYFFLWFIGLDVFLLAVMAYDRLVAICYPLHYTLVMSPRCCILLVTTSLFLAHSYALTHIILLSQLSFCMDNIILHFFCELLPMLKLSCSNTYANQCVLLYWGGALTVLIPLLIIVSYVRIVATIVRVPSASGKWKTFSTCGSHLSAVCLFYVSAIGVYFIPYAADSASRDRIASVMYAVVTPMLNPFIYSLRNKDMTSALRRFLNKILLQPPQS
How it was run: as §1

[3] = target: T3, UniProt Q8VG01
T3 sequence (whole entry): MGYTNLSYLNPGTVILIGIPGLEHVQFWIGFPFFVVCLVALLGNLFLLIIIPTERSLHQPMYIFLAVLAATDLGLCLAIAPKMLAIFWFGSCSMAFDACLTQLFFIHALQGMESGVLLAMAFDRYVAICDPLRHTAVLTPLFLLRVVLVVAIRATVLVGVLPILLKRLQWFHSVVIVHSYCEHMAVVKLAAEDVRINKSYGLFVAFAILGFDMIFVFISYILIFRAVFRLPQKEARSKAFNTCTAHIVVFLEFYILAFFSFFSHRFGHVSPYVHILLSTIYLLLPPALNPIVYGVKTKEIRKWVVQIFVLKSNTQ
How it was run: as §1

[4] = target: T4, UniProt Q8VG27
T4 sequence (whole entry): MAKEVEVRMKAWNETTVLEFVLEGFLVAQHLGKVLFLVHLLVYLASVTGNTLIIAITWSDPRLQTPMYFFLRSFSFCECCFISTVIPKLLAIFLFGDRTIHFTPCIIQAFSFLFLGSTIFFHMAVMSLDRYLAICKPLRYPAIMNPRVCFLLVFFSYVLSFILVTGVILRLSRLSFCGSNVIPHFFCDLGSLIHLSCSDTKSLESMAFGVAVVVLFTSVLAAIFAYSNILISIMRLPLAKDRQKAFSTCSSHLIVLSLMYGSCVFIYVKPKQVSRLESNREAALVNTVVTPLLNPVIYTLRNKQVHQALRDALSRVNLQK
How it was run: as §1

[5] = target: T5, UniProt Q8VG53
T5 sequence (whole entry): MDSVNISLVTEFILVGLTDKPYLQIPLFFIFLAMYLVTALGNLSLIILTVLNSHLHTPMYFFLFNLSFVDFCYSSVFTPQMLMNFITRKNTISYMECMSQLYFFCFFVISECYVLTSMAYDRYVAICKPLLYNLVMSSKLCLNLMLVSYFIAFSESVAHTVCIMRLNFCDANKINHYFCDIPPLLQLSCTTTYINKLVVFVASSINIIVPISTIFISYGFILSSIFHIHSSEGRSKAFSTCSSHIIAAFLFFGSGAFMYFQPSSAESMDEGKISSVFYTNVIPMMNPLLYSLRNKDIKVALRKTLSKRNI
How it was run: as §1

[6] = target: T6, UniProt Q8VG64
T6 sequence (whole entry): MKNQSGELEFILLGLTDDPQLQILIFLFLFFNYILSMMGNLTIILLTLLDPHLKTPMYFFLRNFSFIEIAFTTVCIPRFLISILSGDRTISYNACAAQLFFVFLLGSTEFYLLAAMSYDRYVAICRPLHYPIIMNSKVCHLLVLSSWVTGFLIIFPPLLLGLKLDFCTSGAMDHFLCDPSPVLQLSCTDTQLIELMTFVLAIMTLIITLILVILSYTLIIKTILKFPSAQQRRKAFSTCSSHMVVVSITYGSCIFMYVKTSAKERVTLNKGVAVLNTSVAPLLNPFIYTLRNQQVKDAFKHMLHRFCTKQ
How it was run: as §1

[7] = target: T7, UniProt Q8VGB9
T7 sequence (whole entry): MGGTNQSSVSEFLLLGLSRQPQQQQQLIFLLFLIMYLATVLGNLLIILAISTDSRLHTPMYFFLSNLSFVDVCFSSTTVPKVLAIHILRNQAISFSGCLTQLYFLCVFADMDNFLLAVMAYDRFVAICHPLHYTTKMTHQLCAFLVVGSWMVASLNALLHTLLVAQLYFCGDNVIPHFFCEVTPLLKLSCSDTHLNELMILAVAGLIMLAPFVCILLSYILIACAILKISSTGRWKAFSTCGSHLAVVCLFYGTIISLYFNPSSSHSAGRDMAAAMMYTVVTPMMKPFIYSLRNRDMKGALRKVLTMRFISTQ
How it was run: as §1

[8] = target: T8, UniProt Q8VGC6
T8 sequence (whole entry): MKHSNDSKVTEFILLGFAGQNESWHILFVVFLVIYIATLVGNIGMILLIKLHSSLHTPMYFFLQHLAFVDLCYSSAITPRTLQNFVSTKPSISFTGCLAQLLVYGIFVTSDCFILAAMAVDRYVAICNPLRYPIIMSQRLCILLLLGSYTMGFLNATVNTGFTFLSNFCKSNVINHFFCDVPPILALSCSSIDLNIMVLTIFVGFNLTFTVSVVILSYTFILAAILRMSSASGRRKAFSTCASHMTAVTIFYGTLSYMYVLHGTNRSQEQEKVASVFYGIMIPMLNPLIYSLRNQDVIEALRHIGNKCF
How it was run: as §1

[9] = target: UniProt Q8VG26
How it was run: as §1

[10] = target: UniProt Q8VG28
How it was run: as §1

Measured: odorant receptor agonist call

CC1COCc2cc3c(cc21)C(C)(C)C(C)C3(C)C (stereo unspecified)
inactive: [1] | [2] | [3] | [4] | [5] | [6] | [8]
active: [7]

CCCCCOC(C)=O
inactive: [1] | [2] | [3] | [9] | [4] | [10] | [5] | [6] | [7] | [8]

CCCC(=O)O
inactive: [10] | [8]

COc1ccccc1O
inactive: [1] | [2] | [3] | [4] | [5] | [6] | [7] | [8]

Two consecutive records already listed, quoted:
CCCCCOC(C)=O
inactive: [1] | [2] | [3] | [9] | [4] | [10] | [5] | [6] | [7] | [8]

CCCC(=O)O
inactive: [10] | [8]

Next entries:

O=C1CCCCCCCCCCCCCCO1
inactive: [1] | [2] | [3] | [4] | [5] | [6] | [7] | [8]
